According to PMC8653791, “TBX2 controls a proproliferative gene expression program in melanoma”:
These are yes or no findings as the source states them, for the method shown. In cells and extracts the contact can be indirect. A yes stands for co-enrichment or nearness to the bait. Other partners may have been found. No binding means not detected with the bait. Where a sequence is shown, tags or fusion partners need not be part of it.

The chains behind the UniProt entries cited, without tags or fusion partners.
UniProt Q9BSM1: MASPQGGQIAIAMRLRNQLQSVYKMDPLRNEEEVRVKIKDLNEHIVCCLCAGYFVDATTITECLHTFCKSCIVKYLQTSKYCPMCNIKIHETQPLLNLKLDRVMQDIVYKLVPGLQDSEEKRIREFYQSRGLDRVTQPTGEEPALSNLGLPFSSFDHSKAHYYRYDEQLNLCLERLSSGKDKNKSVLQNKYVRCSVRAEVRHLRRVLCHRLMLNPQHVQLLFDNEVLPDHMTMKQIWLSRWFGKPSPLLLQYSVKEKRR
UniProt Q9P2D1: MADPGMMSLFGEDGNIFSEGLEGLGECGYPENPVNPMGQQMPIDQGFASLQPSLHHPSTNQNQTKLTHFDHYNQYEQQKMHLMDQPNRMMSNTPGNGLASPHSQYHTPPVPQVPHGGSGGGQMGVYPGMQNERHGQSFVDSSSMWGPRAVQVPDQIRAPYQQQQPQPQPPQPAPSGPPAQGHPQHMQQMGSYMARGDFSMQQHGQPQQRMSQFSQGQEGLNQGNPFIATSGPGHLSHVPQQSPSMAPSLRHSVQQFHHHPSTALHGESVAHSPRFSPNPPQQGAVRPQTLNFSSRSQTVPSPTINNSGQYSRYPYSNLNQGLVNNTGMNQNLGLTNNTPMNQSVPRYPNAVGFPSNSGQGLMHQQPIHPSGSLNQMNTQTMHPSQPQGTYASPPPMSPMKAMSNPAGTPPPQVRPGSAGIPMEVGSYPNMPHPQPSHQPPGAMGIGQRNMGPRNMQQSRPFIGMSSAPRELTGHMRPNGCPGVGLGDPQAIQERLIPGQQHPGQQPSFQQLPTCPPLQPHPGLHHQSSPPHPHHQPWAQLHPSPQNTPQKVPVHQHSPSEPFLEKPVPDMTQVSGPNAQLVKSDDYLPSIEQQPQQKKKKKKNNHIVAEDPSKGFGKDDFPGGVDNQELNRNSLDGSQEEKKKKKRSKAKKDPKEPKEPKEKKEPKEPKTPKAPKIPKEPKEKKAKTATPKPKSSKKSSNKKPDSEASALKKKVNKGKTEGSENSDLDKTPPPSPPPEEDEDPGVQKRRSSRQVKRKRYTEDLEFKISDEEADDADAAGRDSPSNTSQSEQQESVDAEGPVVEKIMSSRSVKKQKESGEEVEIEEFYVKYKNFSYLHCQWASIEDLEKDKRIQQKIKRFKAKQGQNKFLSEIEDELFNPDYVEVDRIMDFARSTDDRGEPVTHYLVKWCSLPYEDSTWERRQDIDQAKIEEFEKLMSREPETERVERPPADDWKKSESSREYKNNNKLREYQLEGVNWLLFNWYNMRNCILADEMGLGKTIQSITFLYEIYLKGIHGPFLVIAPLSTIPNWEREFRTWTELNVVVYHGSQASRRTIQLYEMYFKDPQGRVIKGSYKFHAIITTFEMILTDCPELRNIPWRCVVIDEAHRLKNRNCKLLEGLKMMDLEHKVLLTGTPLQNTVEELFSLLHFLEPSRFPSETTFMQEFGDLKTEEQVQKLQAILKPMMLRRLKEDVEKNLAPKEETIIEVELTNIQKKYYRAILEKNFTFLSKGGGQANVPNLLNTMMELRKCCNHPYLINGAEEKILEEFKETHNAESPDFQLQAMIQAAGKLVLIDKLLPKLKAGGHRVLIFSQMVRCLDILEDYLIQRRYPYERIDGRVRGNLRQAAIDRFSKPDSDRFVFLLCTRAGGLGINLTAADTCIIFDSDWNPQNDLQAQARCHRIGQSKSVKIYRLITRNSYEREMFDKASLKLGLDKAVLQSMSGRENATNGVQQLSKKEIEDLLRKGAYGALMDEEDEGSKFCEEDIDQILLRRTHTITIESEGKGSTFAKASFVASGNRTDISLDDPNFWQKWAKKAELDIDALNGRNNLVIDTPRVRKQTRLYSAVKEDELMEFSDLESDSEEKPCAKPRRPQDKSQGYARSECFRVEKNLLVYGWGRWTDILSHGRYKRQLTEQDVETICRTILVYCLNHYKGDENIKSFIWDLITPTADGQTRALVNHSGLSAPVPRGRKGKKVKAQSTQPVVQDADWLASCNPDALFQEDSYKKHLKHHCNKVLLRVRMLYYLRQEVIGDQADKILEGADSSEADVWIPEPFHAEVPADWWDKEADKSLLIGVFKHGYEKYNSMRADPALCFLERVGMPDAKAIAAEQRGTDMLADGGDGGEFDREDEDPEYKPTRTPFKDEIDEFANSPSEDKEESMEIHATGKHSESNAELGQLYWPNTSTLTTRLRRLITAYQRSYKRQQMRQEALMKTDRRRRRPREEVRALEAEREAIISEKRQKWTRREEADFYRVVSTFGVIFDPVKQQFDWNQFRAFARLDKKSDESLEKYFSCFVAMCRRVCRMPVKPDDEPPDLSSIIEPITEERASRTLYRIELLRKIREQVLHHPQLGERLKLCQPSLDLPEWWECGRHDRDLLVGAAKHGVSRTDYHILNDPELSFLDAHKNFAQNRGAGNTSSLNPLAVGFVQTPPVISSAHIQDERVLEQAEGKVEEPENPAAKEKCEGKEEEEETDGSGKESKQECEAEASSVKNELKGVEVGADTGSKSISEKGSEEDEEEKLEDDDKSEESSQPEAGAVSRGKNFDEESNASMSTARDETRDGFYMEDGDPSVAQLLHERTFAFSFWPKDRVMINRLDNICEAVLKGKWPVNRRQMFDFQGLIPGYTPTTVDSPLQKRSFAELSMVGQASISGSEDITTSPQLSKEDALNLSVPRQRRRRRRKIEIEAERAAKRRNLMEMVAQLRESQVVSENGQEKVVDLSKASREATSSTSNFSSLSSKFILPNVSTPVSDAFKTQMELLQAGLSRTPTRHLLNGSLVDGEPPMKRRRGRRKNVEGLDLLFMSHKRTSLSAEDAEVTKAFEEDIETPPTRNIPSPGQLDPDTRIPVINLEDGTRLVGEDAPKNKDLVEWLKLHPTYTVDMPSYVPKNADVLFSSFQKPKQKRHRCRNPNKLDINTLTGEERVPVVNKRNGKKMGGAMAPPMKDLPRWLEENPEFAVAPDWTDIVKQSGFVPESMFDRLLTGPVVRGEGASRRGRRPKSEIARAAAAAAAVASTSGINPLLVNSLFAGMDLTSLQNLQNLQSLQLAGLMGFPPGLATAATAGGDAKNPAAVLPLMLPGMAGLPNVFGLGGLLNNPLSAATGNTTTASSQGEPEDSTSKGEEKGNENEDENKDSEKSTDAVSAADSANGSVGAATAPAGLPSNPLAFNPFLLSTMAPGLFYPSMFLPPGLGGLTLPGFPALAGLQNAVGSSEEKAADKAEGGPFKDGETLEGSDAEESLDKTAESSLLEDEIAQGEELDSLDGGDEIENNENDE
UniProt P63208: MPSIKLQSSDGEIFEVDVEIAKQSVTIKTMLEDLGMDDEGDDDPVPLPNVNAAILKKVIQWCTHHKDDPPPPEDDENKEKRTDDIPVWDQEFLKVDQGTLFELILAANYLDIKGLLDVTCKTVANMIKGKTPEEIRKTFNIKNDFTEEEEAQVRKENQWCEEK
UniProt Q9NQB0: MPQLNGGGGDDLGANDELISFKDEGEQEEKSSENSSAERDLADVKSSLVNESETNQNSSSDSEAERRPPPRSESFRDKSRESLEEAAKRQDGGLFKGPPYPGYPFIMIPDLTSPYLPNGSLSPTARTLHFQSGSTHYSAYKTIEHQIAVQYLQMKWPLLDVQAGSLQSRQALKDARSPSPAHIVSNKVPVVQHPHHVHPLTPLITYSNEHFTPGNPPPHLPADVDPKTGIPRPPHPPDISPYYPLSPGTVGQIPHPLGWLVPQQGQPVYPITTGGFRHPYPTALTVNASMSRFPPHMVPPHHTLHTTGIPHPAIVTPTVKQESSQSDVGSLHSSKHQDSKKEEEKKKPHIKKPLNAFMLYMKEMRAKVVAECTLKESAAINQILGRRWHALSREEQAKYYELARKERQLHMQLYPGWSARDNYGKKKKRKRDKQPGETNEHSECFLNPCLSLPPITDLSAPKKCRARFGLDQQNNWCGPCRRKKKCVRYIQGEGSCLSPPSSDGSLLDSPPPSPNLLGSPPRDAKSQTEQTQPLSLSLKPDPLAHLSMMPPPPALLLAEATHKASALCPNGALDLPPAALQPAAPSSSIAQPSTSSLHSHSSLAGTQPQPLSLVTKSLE
UniProt O75376: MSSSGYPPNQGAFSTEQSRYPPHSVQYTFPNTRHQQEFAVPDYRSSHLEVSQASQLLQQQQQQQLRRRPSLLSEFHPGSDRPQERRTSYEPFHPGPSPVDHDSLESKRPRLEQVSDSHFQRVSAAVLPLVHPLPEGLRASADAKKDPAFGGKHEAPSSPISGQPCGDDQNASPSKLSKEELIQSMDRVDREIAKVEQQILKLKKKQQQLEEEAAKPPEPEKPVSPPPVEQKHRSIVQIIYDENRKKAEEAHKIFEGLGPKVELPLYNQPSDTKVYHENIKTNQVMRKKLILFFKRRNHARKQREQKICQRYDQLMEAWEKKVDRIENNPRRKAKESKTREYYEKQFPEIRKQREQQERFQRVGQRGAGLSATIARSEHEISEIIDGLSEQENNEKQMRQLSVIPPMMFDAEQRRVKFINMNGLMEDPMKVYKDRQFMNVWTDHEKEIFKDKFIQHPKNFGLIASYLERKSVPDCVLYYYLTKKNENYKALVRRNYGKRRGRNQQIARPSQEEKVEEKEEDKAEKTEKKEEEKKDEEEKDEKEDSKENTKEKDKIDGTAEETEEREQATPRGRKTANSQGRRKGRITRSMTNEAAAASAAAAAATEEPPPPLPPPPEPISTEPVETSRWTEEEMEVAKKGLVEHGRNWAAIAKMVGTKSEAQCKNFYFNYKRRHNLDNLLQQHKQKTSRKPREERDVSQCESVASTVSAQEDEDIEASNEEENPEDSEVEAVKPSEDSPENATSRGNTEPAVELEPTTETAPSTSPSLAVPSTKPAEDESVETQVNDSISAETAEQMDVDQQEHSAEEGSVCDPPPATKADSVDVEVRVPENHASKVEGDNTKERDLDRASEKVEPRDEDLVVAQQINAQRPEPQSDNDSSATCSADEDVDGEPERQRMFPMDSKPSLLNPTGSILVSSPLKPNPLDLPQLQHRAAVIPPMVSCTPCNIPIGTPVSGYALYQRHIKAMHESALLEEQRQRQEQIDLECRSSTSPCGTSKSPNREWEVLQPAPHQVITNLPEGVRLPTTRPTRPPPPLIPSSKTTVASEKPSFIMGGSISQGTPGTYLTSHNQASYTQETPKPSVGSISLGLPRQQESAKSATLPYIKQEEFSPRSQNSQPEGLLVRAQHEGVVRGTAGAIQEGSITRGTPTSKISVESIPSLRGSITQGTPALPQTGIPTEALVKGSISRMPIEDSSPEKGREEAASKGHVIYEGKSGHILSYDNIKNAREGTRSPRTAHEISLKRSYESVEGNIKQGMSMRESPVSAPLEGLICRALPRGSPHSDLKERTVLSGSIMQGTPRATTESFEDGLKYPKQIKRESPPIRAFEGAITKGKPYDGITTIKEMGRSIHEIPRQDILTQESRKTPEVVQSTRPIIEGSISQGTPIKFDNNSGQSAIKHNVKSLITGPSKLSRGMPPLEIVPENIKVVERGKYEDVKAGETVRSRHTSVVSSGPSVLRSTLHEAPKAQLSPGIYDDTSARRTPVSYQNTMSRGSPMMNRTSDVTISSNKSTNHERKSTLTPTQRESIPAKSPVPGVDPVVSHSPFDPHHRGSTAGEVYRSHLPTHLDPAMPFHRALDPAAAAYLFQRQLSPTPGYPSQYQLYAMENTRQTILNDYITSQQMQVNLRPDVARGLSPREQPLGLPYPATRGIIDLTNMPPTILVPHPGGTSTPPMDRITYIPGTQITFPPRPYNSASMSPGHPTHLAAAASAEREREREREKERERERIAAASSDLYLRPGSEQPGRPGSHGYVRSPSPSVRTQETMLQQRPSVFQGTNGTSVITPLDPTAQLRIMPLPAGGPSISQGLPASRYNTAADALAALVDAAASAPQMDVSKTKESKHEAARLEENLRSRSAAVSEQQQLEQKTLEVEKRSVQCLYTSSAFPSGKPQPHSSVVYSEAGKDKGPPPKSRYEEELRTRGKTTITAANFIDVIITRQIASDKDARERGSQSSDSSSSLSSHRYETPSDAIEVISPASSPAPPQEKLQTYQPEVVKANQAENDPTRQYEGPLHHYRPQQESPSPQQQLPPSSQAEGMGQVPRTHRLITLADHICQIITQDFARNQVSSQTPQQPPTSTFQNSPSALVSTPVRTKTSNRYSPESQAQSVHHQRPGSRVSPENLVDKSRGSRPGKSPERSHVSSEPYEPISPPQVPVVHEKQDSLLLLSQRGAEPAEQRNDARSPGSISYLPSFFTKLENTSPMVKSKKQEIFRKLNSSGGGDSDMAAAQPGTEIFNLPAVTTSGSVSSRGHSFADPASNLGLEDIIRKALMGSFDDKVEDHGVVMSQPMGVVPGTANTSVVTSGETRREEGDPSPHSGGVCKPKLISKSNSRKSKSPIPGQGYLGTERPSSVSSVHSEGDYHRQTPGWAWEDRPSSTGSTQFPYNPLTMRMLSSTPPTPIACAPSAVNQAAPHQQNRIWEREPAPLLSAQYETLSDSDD

T1: BirA*-FLAG-Tbx2 (UniProt Q60707)
T1 sequence: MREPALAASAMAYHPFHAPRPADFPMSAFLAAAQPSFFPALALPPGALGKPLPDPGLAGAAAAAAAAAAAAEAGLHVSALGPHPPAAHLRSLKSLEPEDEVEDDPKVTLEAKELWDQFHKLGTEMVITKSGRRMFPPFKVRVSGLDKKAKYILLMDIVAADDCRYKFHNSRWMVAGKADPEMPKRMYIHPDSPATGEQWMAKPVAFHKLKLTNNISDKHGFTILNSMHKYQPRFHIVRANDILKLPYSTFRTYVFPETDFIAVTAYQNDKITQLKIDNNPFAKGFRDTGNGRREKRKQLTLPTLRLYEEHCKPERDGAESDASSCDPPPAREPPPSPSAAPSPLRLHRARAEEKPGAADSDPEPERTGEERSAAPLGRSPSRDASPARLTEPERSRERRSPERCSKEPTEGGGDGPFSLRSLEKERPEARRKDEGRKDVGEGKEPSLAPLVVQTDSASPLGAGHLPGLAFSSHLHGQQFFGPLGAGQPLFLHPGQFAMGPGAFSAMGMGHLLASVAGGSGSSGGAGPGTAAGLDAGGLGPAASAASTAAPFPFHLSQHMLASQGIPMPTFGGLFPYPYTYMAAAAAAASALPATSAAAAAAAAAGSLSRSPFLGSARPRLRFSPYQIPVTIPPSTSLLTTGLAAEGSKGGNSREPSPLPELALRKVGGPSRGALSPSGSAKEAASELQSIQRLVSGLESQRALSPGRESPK


Molecular target: T1, BirA*-FLAG-Tbx2
Experiment: proximity labelling; BioID: BirA*(R118G)-FLAG-Tbx2 stably expressed in Flp-In T-REx HEK293, 1 ug/mL tetracycline and 50 uM biotin for 24 h; RIPA lysis; biotinylated proteins captured on streptavidin-sepharose and identified by mass spectrometry; SAINTexpress, 1% FDR; controls BirA*-FLAG-GFP, BirA*-NLS-FLAG, empty cell line

| Molecule | binding |
| --- | --- |
| TFAP2 (human (endogenous in HEK293)) | binds |
| BCOR (from UniProt Q6W2J9 1-1755) | binds |
| PCGF1 (endogenous in HEK293) (from UniProt Q9BSM1 1-259) | binds |
| BCORL1 (from UniProt Q5H9F3 1-1785) | binds |
| CHD7 (from UniProt Q9P2D1 1-2997) | binds |
| SKP1 (from UniProt P63208 1-163) | binds |
| TCF7L2 (TCF4) (from UniProt Q9NQB0 1-619) | binds |
| nuclear receptor corepressor 1 (NCOR1) (from UniProt O75376 1-2440) | binds |
| TFE3 (from UniProt P19532 1-575) | no binding |
| BCL11A (from UniProt Q9H165 1-835) | binds |
| KDM2B (protein, UniProt Q8NHM5 1-1336) MAGPQMGGSAEDHPPRKRHAAEKQKKKTVIYTKCFEFESATQRPIDRQRYDENEDLSDVEEIVSVRGFSLEEKLRSQLYQGDFVHAMEGKDFNYEYVQREALRVPLIFREKDGLGIKMPDPDFTVRDVKLLVGSRRLVDVMDVNTQKGTEMSMSQFVRYYETPEAQRDKLYNVISLEFSHTKLEHLVKRPTVVDLVDWVDNMWPQHLKEKQTEATNAIAEMKYPKVKKYCLMSVKGCFTDFHIDFGGTSVWYHVFRGGKIFWLIPPTLHNLALYEEWVLSGKQSDIFLGDRVERCQRIELKQGYTFFIPSGWIHAVYTPVDSLVFGGNILHSFNVPMQLRIYEIEDRTRVQPKFRYPFYYEMCWYVLERYVYCVTQRSHLTQEYQRESMLIDAPRKPSIDGFSSDSWLEMEEEACDQQPQEEEEKDEEGEGRDRAPKPPTDGSTSPTSTPSEDQEALGKKPKAPALRFLKRTLSNESEESVKSTTLAVDYPKTPTGSPATEVSAKWTHLTEFELKGLKALVEKLESLPENKKCVPEGIEDPQALLEGVKNVLKEHADDDPSLAITGVPVVTWPKKTPKNRAVGRPKGKLGPASAVKLAANRTTAGARRRRTRCRKCEACLRTECGECHFCKDMKKFGGPGRMKQSCIMRQCIAPVLPHTAVCLVCGEAGKEDTVEEEEGKFNLMLMECSICNEIIHPGCLKIKESEGVVNDELPNCWECPKCNHAGKTGKQKRGPGFKYASNLPGSLLKEQKMNRDNKEGQEPAKRRSECEEAPRRRSDEHSKKVPPDGLLRRKSDDVHLRKKRKYEKPQELSGRKRASSLQTSPGSSSHLSPRPPLGSSLSPWWRSSLTYFQQQLKPGKEDKLFRKKRRSWKNAEDRMALANKPLRRFKQEPEDELPEAPPKTRESDHSRSSSPTAGPSTEGAEGPEEKKKVKMRRKRRLPNKELSRELSKELNHEIQRTENSLANENQQPIKSEPESEGEEPKRPPGICERPHRFSKGLNGTPRELRHQLGPSLRSPPRVISRPPPSVSPPKCIQMERHVIRPPPISPPPDSLPLDDGAAHVMHREVWMAVFSYLSHQDLCVCMRVCRTWNRWCCDKRLWTRIDLNHCKSITPLMLSGIIRRQPVSLDLSWTNISKKQLSWLINRLPGLRDLVLSGCSWIAVSALCSSSCPLLRTLDVQWVEGLKDAQMRDLLSPPTDNRPGQMDNRSKLRNIVELRLAGLDITDASLRLIIRHMPLLSKLHLSYCNHVTDQSINLLTAVGTTTRDSLTEINLSDCNKVTDQCLSFFKRCGNICHIDLRYCKQVTKEGCEQFIAEMSVSVQFGQVEEKLLQKLS | binds |
| RYBP (protein, UniProt Q8N488 1-228) MTMGDKKSPTRPKRQAKPAADEGFWDCSVCTFRNSAEAFKCSICDVRKGTSTRKPRINSQLVAQQVAQQYATPPPPKKEKKEKVEKQDKEKPEKDKEISPSVTKKNTNKKTKPKSDILKDPPSEANSIQSANATTKTSETNHTSRPRLKNVDRSTAQQLAVTVGNVTVIITDFKEKTRSSSTSSSTVTSSAGSEQQNQSSSGSESTDKGSSRSSTPKGDMSAVNDESF | no binding |
| YAF2 (protein, UniProt Q8IY57 1-180) MGDKKSPTRPKRQPKPSSDEGYWDCSVCTFRNSAEAFKCMMCDVRKGTSTRKPRPVSQLVAQQVTQQFVPPTQSKKEKKDKVEKEKSEKETTSKKNSHKKTRPRLKNVDRSSAQHLEVTVGDLTVIITDFKEKTKSPPASSAASADQHSQSGSSSDNTERGMSRSSSPRGEASSLNGESH | no binding |
